Among the data in PubChem BioAssay AID328 (DTP/NCI, 2004) are T/C and survivor count values, retold here.

The test deals with BDF1 mice, P388 leukemia ip, median survival T/C. Kind of test: NCI In Vivo Anticancer Drug Screen. Data for tumor model P388 Leukemia (intraperitoneal) in B6D2F1 (BDF1) mice. To be noted: T/C endpoint: median survival time, higher T/C = longer survival. The procedure, abridged: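 Transplantable tumour in mice; compound vs vehicle dosing; survival scored; ratio of treated to control reported.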

The mark [1] stands for this setting: dose: 200.0 mg/kg/injection, schedule: Q04DX003 (ip), vehicle: saline with Tween-80.
[2] abbreviates: dose: 400.0 mg/kg/injection, schedule: Q04DX003 (ip), vehicle: saline with Tween-80.
Where [3] appears, read: dose: 50.0 mg/kg/injection, schedule: Q04DX003 (ip), vehicle: saline.
Setting [4] is: dose: 100.0 mg/kg/injection, schedule: Q01DX009 (ip), vehicle: saline.
Setting [5] is: dose: 200.0 mg/kg/injection, schedule: Q04DX003 (ip), vehicle: saline.
Setting [6] is: dose: 25.0 mg/kg/injection, schedule: Q01DX009 (ip), vehicle: saline.
[7] abbreviates: dose: 50.0 mg/kg/injection, schedule: Q01DX009 (ip), vehicle: saline.

The list is a part of this screen's results and no random one: it gathers tests that were run many times, whatever their T/C, doses with no T/C, and many T/C values between a quarter and a half above the control. Further doses and runs are listed elsewhere. T/C: endpoint of the treated group in % of that of the vehicle group. Some doses have a count of surviving animals in place of a T/C: the source files T/C as zero there, which appears to mark a toxic dose or a test without result, not a measured value. Some survivor counts are full or nearly so, which does not show that the dose was tolerated: the source hardly ever lists a survival T/C far under the control, and the zero likely stands for such cases as well. Counts of survivors are from the toxicity check (mostly the fifth day) where no day follows; animals may have died later. Schedules are NCI's codes, taken here to give the interval after Q, in days (D) or hours (H), and the number of doses after X. Some entries hold several experiments; their values stand side by side, smallest first. Some molecules as drawn cover several salts, stereoisomers or complexes of the source; a dose is that of the sample tested. Where survival is the endpoint, this PubChem deposit counts one and a half times the control or more as active, and values a quarter to a half above the control carry no call in these data; other NCI protocols may use other cut-offs. Some T/C values carry the count of animals alive at the toxicity check (mostly the fifth day); without a count, all were alive then.

Regarding `Cc1cnc(Cl)nc1Sc1nc(N)nc2nc[nH]c12`, the T/C was 138 % of control (dose: 4.0 mg/kg/injection, schedule: Q01DX009 (ip), vehicle: saline with Tween-80) and 138 % of control (dose: 9.0 mg/kg/injection, schedule: Q01DX009 (ip), vehicle: saline with Tween-80). Further, the survivor count is recorded as 6 of 6 under setting [1] and 6 of 6 under setting [2].

Turning to `Nc1ccn(C2OC(COP(=O)(O)O)C(O)C2O)c(=O)n1` (stereo not drawn), for the setting “dose: 14.0 mg/kg/injection, schedule: Q04DX003 (ip), vehicle: saline”, the T/C is 140 % of control. For the same compound, the survivor count (dose: 400.0 mg/kg/injection, schedule: Q01DX009 (ip), vehicle: saline with Tween-80) was 5 of 6.

As for `O=Cc1ccc(N2CCCCC2)cc1`, under “dose: 400.0 mg/kg/injection, schedule: Q04DX003 (ip), vehicle: Klucel (hydroxypropylcellulose) (HPC)”, the survivor count is reported as 4 of 6.

As for `O=C(CCBr)N1CCN(C(=O)CCBr)CC1`, the survivor count (dose: 80.0 mg/kg/injection, schedule: Q01DX010 (ip), vehicle: saline) is reported as 6 of 6.

For the compound `N=C(N)SCc1ccccc1`, the survivor count by setting is: (dose: 100.0 mg/kg/injection, schedule: Q01DX001 (ip), vehicle: saline) 3 of 6; (dose: 200.0 mg/kg/injection, schedule: Q01DX001 (ip), vehicle: saline) 0 of 6.

As for `CC1CN1P1(N2CC2C)=NP(N2CC2C)(N2CC2C)=NP(N2CC2C)(N2CC2C)=N1` (stereo not drawn), the T/C (dose: 10.0 mg/kg/injection, schedule: Q01DX009 (ip), vehicle: saline) was 130 % of control; the T/C (dose: 11.0 mg/kg/injection, schedule: Q01DX009 (ip), vehicle: saline) is 126 % of control; the T/C (dose: 12.5 mg/kg/injection, schedule: Q01DX009 (ip), vehicle: saline) is 138 % of control; the T/C under setting [3] is 130 % of control. Besides, the survivor count by setting is: under setting [4], 5 of 6; (dose: 200.0 mg/kg/injection, schedule: Q01DX009 (ip), vehicle: saline) 5 of 6; under setting [5], 4 of 6; (dose: 400.0 mg/kg/injection, schedule: Q04DX003 (ip), vehicle: saline) 0 of 6.

Take `CCCCCCCCCCCCCC[n+]1ccccc1`: the T/C runs as follows: (dose: 0.5 mg/kg/injection, schedule: Q01DX010 (ip), vehicle: saline) 135 % of control; (dose: 8.0 micrograms/kg/injection, schedule: Q01DX009 (ip), vehicle: saline with Tween-80) 125 % of control; (dose: 250.0 micrograms/kg/injection, schedule: Q01DX009 (ip), vehicle: saline) 140 % of control; (dose: 500.0 micrograms/kg/injection, schedule: Q01DX009 (ip), vehicle: saline) 145 % of control. In addition, the survivor count reads like this: (dose: 1.0 mg/kg/injection, schedule: Q01DX010 (ip), vehicle: saline) 2 of 6; (dose: 2.0 mg/kg/injection, schedule: Q01DX010 (ip), vehicle: saline) 0 of 6; (dose: 4.0 mg/kg/injection, schedule: Q01DX010 (ip), vehicle: saline) 0 of 6; (dose: 125.0 micrograms/kg/injection, schedule: Q01DX010 (ip), vehicle: saline) 4 of 6; (dose: 500.0 micrograms/kg/injection, schedule: Q01DX010 (ip), vehicle: saline) 3 of 6; (dose: 1000.0 micrograms/kg/injection, schedule: Q01DX009 (ip), vehicle: saline) 3 of 6.

Take `c1ccc(-c2ncc3cnccn23)cc1`: the survivor count under setting [6] is 6 of 6, the survivor count under setting [4] is on record as 0 of 6 and the survivor count under setting [5] is reported as 0 of 6.

Regarding `COc1cccc(S(=O)c2ccc([N+](=O)[O-])c3no[n+]([O-])c23)c1` (stereo not drawn), the survivor count runs as follows: (dose: 30.0 mg/kg/injection, schedule: Q01DX009 (ip), vehicle: saline with Tween-80) 4 of 7; (dose: 60.0 mg/kg/injection, schedule: Q01DX009 (ip), vehicle: saline with Tween-80) 1 of 7.

For `FC(F)(F)c1ccc2c(c1)N(CCCN1CCN(CCOCCCl)CC1)c1ccccc1S2`, the T/C is 130 % of control (dose: 12.5 mg/kg/injection, schedule: Q04DX003 (ip), vehicle: saline); 125 and 141 % of control (dose: 25.0 mg/kg/injection, schedule: Q04DX003 (ip), vehicle: saline); 134 and 135 % of control under setting [3].

As to `CC[C@@]1(O)C[C@H](OC2CC(N(C)C)C(OC3CC4OC5CC(=O)C(C)OC5OC4C(C)O3)C(C)O2)c2c(cc3c(c2O)C(=O)c2c(O)cccc2C3=O)[C@H]1C(=O)OC` (stereo partly drawn), the T/C is, setting by setting: (dose: 0.5 mg/kg/injection, schedule: Q01DX009 (ip), vehicle: water) 133 % of control; (dose: 1.0 mg/kg/injection, schedule: Q01DX009 (ip), vehicle: water) 125 % of control; (dose: 2.0 mg/kg/injection, schedule: Q01DX009 (ip), vehicle: water) 136 % of control. The survivor count (dose: 8.0 mg/kg/injection, schedule: Q01DX009 (ip), vehicle: water) is 2 of 6.

In the case of `COC(=O)C(CCCCNC(=O)OCc1ccccc1)NC(=O)C(CCCCNC(=O)OCc1ccccc1)NC(=O)OC(C)(C)C` (stereo not drawn), the survivor count (dose: 50.0 mg/kg/injection, schedule: Q01DX005 (ip), vehicle: saline with Tween-80) is 5 of 5 and the survivor count (dose: 100.0 mg/kg/injection, schedule: Q01DX005 (ip), vehicle: saline with Tween-80) is given as 5 of 5.

Regarding `CC(=O)c1ccc(Oc2ccc(/C(C)=N\N=C(N)N)cc2)cc1`, the T/C runs as follows: under setting [6], 125 and 129 % of control; (dose: 37.5 mg/kg/injection, schedule: Q01DX009 (ip), vehicle: saline) 127 % of control. Moreover, the survivor count is, setting by setting: under setting [7], 3 of 6 and 4 of 6; under setting [4], 0 of 6.

Consider `[O-][n+]1c(CCl)nc2cccc3c2c1-c1ccccc1-3`, for which the T/C (dose: 50.0 mg/kg/injection, schedule: Q01DX009 (ip), vehicle: saline with Tween-80) is 131 [6 of 8 alive] and 147 % of control; the T/C (dose: 100.0 mg/kg/injection, schedule: Q01DX009 (ip), vehicle: saline with Tween-80) is 133 % of control. Under “dose: 200.0 mg/kg/injection, schedule: Q01DX009 (ip), vehicle: saline with Tween-80”, the survivor count is listed as 1 of 6.

For the compound `O=[N+]([O-])/C=C/c1ccc([N+](=O)[O-])cc1`, the survivor count by setting is: under setting [1], 1 of 6; under setting [2], 2 of 6.

Take `Nc1ccc(C(=O)Nc2ccc(Nc3ccncc3)cc2)c([N+](=O)[O-])c1`: the T/C under setting [7] was 130 % of control.

As to `CCCCCCCCCCCCCCCC[N+](C)(C)C(C)c1ccccc1` (stereo not drawn), the survivor count runs as follows: (dose: 6.25 mg/kg/injection, schedule: Q04DX003 (ip), vehicle: saline with Tween-80) 4 of 6; (dose: 12.5 mg/kg/injection, schedule: Q04DX003 (ip), vehicle: saline with Tween-80) 3 of 6; (dose: 25.0 mg/kg/injection, schedule: Q04DX003 (ip), vehicle: saline with Tween-80) 1 of 6; (dose: 100.0 mg/kg/injection, schedule: Q04DX003 (ip), vehicle: saline with Tween-80) 0 of 6; under setting [1], 0 of 6; under setting [2], 0 of 6.
